Measurements reported in US20250144242A1.
No constants are given. Whether binding was seen depends on the method and setting. Binding seen in cells or lysates may run through a third protein. Some binding calls cover weakened binding; strength is not graded here. Where a sequence is shown, tags or fusion partners need not be part of it.

Sequences of proteins named here, by UniProt entry; tags and fusion partners are left off. Residues count along the entry.
UniProt P01344, residues 25-180: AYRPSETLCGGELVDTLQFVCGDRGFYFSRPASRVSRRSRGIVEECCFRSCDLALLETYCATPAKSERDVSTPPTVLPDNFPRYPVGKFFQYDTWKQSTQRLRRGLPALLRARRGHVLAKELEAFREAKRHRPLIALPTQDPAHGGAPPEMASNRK

Biological target: T1, 3×FLAG-tagged TMED10 (TMED10-FLAG), human, full-length (human) (UniProt P49755)
T1 sequence (looked up): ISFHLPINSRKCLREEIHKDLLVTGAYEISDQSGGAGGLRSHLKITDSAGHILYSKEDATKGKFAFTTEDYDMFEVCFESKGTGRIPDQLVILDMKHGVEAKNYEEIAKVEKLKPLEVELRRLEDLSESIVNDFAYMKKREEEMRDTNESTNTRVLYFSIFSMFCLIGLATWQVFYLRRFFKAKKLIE
Experiment: co-immunoprecipitation on anti-FLAG beads, DSP-crosslinked HEK293T lysates, immunoblot

binding: binds
Substance: 3×HA-tagged IGF2 (IGF2-HA), human (from UniProt P01344 25-180) (ligand)
